Results taken from the supplement of paper PMC10849652.
The other results are listed elsewhere or left out.

The chains behind the UniProt entries cited, without tags or fusion partners. Where a name states a change or a piece, a line headed by the entry shows the natural chain unless it says otherwise.
UniProt Q9Y4B5: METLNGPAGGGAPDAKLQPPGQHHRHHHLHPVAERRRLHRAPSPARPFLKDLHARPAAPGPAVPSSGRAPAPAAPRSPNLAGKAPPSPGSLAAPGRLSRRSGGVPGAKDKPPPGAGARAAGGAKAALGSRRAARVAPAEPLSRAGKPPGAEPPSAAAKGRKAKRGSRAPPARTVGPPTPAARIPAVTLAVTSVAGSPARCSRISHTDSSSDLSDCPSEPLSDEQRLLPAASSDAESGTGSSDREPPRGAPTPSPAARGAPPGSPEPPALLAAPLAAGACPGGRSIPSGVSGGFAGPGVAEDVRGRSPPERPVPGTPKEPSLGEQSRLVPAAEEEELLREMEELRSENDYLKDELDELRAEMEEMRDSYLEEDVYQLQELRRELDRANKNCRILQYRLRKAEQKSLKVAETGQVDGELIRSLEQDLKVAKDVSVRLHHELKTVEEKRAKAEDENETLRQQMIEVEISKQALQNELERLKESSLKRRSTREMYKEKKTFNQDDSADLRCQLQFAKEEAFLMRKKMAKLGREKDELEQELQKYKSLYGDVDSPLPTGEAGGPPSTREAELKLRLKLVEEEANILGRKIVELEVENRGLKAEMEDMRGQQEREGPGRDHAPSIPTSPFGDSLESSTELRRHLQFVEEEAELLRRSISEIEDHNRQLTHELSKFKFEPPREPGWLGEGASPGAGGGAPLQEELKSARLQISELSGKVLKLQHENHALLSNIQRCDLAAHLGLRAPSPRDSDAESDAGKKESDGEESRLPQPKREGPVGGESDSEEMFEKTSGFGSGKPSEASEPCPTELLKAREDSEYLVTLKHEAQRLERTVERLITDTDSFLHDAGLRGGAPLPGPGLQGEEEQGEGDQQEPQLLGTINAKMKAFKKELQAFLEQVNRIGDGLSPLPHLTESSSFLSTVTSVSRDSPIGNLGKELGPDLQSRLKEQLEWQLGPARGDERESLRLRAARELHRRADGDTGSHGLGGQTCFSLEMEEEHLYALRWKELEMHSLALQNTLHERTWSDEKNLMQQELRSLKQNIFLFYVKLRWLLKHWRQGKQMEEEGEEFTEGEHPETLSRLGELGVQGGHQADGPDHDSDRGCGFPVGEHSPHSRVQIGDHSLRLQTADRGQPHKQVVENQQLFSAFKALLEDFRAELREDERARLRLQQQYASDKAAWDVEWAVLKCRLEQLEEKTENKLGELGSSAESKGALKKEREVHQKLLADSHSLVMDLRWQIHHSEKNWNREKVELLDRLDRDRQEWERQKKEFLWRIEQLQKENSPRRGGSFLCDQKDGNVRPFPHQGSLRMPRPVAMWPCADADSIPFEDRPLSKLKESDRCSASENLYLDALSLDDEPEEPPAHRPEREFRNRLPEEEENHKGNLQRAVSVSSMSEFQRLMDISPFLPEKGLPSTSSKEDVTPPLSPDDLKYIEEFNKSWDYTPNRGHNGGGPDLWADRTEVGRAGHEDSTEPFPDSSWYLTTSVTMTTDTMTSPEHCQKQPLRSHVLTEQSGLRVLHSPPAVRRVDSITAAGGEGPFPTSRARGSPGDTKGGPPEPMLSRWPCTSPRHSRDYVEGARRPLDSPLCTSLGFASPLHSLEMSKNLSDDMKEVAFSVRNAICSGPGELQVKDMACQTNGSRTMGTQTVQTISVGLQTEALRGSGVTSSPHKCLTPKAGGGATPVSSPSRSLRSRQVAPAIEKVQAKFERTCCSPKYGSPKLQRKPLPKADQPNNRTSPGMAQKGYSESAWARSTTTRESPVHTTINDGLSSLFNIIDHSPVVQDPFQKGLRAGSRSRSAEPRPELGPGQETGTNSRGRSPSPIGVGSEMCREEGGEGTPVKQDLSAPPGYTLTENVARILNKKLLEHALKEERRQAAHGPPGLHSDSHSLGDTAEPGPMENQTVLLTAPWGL
UniProt Q9Y2Z2: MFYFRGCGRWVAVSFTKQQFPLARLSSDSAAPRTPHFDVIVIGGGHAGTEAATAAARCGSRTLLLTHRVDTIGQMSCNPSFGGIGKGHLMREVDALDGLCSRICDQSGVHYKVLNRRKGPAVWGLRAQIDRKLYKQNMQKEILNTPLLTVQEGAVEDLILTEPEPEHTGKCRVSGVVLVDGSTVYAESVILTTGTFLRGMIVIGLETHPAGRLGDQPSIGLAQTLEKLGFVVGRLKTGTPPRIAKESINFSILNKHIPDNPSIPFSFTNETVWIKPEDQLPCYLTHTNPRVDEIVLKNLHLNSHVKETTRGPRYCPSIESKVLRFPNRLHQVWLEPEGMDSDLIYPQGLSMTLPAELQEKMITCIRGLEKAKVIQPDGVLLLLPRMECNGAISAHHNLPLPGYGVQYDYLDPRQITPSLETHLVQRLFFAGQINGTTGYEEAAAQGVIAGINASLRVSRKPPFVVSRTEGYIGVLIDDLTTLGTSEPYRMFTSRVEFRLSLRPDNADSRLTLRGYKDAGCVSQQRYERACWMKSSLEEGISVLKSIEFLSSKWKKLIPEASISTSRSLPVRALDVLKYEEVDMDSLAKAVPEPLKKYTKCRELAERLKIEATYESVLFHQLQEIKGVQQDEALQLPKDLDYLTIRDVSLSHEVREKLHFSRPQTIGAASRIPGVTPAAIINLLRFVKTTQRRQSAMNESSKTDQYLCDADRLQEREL
UniProt O15457: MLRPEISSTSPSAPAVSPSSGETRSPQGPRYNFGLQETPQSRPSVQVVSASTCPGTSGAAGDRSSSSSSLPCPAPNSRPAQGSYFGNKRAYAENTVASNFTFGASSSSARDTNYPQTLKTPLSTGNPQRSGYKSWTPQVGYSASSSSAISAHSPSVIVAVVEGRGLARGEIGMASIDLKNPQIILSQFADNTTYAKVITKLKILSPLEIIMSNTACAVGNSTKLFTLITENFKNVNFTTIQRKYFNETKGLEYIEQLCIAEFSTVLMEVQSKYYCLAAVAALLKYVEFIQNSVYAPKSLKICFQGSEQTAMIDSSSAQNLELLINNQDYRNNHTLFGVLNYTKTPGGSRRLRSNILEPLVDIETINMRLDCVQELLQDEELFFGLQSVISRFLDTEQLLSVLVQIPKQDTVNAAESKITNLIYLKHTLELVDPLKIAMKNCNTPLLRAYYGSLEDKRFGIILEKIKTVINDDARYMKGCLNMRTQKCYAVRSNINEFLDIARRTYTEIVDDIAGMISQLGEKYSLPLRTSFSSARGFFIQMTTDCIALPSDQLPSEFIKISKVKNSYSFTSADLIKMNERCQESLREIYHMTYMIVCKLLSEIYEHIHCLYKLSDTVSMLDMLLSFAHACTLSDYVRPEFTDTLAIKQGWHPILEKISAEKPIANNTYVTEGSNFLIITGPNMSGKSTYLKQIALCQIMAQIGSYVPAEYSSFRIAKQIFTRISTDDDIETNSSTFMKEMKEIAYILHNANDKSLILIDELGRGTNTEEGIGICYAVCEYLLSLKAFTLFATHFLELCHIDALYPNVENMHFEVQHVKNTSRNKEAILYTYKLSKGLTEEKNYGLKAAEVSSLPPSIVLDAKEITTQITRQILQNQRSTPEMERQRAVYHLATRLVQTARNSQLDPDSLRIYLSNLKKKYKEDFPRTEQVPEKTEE
UniProt Q9H903: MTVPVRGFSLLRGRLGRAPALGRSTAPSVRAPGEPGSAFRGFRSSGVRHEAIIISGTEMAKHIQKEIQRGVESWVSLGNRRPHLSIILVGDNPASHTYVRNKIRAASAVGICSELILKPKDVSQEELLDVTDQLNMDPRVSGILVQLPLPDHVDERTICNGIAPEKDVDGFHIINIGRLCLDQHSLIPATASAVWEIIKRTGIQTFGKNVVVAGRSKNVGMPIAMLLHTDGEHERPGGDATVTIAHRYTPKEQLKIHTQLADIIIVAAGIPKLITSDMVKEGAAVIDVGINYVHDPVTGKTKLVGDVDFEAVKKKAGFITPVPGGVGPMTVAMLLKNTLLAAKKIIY
UniProt Q9P0P8: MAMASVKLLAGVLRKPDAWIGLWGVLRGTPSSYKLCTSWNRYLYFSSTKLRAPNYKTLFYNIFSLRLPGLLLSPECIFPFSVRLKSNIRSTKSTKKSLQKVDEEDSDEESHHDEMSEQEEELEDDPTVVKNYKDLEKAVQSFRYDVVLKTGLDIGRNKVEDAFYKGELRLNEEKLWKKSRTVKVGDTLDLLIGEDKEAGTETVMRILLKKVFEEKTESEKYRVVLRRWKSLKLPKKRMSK
UniProt Q96HJ5: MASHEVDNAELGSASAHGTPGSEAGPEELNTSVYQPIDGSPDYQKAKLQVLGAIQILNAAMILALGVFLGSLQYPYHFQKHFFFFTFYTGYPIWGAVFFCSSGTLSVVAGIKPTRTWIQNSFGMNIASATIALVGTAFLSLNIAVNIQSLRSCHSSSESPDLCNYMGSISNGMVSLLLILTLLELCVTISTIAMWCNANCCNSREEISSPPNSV
UniProt Q969V6: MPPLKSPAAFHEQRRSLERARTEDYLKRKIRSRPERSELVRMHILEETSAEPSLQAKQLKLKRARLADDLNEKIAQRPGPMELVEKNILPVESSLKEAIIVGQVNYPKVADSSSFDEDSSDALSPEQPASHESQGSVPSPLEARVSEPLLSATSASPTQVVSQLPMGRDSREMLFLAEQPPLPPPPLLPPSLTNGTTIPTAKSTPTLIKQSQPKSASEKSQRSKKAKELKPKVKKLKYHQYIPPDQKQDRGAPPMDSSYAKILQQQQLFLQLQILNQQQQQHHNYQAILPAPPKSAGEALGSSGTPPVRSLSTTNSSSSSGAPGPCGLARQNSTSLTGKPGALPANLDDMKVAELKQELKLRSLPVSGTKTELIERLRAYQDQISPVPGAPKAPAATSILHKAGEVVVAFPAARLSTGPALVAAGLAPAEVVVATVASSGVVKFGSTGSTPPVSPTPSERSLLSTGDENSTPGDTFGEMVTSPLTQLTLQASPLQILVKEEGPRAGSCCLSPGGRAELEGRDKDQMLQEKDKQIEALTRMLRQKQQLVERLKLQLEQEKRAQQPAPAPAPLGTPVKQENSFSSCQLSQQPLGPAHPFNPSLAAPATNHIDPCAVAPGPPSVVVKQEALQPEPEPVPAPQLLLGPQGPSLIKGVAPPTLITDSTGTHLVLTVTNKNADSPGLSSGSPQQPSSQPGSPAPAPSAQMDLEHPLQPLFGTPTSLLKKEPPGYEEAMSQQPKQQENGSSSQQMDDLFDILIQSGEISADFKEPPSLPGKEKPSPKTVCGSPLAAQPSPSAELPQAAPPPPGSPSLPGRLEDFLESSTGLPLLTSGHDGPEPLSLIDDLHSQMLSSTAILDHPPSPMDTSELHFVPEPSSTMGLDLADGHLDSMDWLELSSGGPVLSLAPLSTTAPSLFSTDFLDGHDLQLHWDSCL
UniProt Q9UJ68: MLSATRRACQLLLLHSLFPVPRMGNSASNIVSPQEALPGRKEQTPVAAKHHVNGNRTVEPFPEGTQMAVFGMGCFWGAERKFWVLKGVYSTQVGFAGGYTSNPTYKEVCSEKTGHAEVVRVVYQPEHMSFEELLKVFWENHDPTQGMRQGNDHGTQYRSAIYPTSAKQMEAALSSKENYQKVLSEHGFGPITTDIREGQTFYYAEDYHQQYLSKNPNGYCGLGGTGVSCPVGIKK
UniProt P55157: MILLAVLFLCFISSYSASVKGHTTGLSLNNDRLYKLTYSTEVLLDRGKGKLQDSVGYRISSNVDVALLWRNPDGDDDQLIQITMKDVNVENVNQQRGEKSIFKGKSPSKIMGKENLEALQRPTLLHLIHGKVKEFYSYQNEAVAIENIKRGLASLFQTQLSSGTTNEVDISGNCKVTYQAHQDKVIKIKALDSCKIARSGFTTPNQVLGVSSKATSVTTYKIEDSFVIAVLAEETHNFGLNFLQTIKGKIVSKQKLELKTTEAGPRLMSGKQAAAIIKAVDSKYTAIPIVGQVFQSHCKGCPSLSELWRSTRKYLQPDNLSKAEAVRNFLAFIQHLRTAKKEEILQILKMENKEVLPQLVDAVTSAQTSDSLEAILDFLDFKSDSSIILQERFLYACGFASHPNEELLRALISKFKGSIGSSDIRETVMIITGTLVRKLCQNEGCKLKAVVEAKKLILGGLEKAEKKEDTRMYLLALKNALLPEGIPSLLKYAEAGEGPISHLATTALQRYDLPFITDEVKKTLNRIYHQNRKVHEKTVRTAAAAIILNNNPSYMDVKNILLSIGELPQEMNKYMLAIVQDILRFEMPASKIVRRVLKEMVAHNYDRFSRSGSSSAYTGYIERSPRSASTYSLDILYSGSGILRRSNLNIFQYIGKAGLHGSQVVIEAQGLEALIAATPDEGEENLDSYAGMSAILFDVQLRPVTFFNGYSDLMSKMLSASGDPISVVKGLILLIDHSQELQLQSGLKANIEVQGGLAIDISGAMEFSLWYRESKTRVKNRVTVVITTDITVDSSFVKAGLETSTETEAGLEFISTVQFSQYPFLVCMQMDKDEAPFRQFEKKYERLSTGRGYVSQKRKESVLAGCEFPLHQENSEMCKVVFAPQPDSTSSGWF
UniProt P03923, whole entry, looked up: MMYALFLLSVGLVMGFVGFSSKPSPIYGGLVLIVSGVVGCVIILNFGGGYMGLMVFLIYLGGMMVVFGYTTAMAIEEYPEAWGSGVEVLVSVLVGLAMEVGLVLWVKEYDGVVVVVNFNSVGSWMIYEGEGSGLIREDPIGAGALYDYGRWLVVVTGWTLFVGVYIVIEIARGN

What was measured:
Test in all cases: log2 fold change, soluble protein after heating vs DMSO (PISA); higher = thermal stabilisation; K562 lysate, 10 uM; active = over 0.2 and 3.5 SD of the protein, either way, in both replicates (recomputed)
[1] = compound: CS(=O)(=O)CCNCc1ccc(-c2ccc3ncnc(Nc4ccc(OCc5cccc(F)c5)c(Cl)c4)c3c2)o1 [lapatinib]
How it was run: (§1)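 K562 pellets were dounce-homogenised in PBS pH 7.4 containing 1 mM MgCl2, and the crude extract, at 1 mg/mL protein, was exposed to 10 μM compound for 30 min. Aliquots were heated for 3 min across 48°C-58°C, pooled, brought to 0.5% NP-40 at 4°C and spun at 21,000xg for 90 min, with the supernatant taken as soluble protein. TMTpro 16plex LC-MS/MS with equalised channel sums quantified that protein. Values are log-two fold changes in thermal stability relative to solvent controls, taken from duplicates.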

[2] = compound: CS(=O)(=O)N1CCN(Cc2cc3nc(-c4cccc5[nH]ncc45)nc(N4CCOCC4)c3s2)CC1 [pictilisib]
How it was run: as §1

[3] = compound: C[C@@H](Oc1cc(-c2cnn(C3CCNCC3)c2)cnc1N)c1c(Cl)ccc(F)c1Cl [crizotinib]
How it was run: as §1

[4] = compound: C[C@H](C1=CC=C(C=C1)C(=O)NC2=C3C=CNC3=NC=C2)N
How it was run: as §1

[5] = compound: Cc1cc(Nc2cc(CN3CCOCC3)c3nc(C)c(Cc4ccc(Cl)cc4F)n3n2)n[nH]1 [gandotinib]
How it was run: as §1

[6] = compound: Cc1cc(Nc2cc(N3CCN(C)CC3)nc(Sc3ccc(NC(=O)C4CC4)cc3)n2)n[nH]1 [tozasertib]
How it was run: as §1

[7] = compound: Cc1ccc(-n2nc(C(C)(C)C)cc2NC(=O)Nc2ccc(OCCN3CCOCC3)c3ccccc23)cc1 [doramapimod]
How it was run: as §1

[8] = compound: Cc1ccc(NC(=O)c2ccc(CN3CC[C@H](N(C)C)C3)c(C(F)(F)F)c2)cc1Nc1nccc(-c2cncnc2)n1 [bafetinib]
How it was run: as §1

[9] = compound: Cc1cccc(CC(=O)N2CCc3c2ccc(-c2cn(C)c4ncnc(N)c24)c3F)n1
How it was run: as §1

[10] = compound: Cc1cn(-c2cc(NC(=O)c3ccc(C)c(Nc4nccc(-c5cccnc5)n4)c3)cc(C(F)(F)F)c2)cn1 [nilotinib]
How it was run: as §1

[11] = compound: Cc1nc(Nc2n[nH]c3c2CN(C(=O)N[C@H](CN(C)C)c2ccccc2)C3(C)C)c2sccc2n1
How it was run: as §1

[12] = compound: Cc1ncc(-c2ccnc(Nc3ccc(S(C)(=O)=O)cc3)n2)n1C(C)C
How it was run: as §1

[13] = compound: Cn1cc(CNCC2CCN(c3ncc(C(=O)NO)cn3)CC2)c2ccccc21 [quisinostat]
How it was run: as §1

[14] = compound: Cn1cncc1[C@@](N)(c1ccc(Cl)cc1)c1ccc2c(c1)c(-c1cccc(Cl)c1)cc(=O)n2C [tipifarnib]
How it was run: as §1

[15] = compound: NC(=O)Nc1cc(-c2cccc(F)c2)sc1C(=O)N[C@H]1CCCNC1
How it was run: as §1

[16] = compound: NC(=O)c1cnc(N[C@@H]2CCCC[C@@H]2N)nc1Nc1cccc(-n2nccn2)c1
How it was run: as §1

[17] = compound: C[C@H](Nc1ncnc2nc[nH]c12)c1cc2cccc(Cl)c2c(=O)n1-c1ccccc1 [duvelisib]
How it was run: as §1

[18] = compound: Cc1nc(Nc2ncc(C(=O)Nc3c(C)cccc3Cl)s2)cc(N2CCN(CCO)CC2)n1 [dasatinib]
How it was run: as §1

[19] = compound: Cn1cc(-c2ccc3c(c2)CCN3C(=O)Cc2cccc(C(F)(F)F)c2)c2c(N)ncnc21
How it was run: as §1

[20] = compound: NC1(c2ccc(-c3nc4ccn5c(=O)[nH]nc5c4cc3-c3ccccc3)cc2)CCC1
How it was run: as §1

Row | Target | log2 fold change [1] | log2 fold change [2] | log2 fold change [3] | log2 fold change [4] | log2 fold change [5] | log2 fold change [6] | log2 fold change [7] | log2 fold change [8] | log2 fold change [9] | log2 fold change [10] | log2 fold change [11] | log2 fold change [12] | log2 fold change [13] | log2 fold change [14] | log2 fold change [15] | log2 fold change [16] | log2 fold change [17] | log2 fold change [18] | log2 fold change [19] | log2 fold change [20]
1 | MRPS14 (UniProt O60783) | inactive: 0.115 | inactive: 0.131 | inactive: -0.031 | inactive: -0.019 | inactive: -0.09 | inactive: 0.085 | inactive: -0.006 | inactive: -0.003 | inactive: -0.05 | inactive: -0.237 | inactive: -0.056 | inactive: 0.022 | inactive: -0.034 | inactive: 0.107 | inactive: -0.01 | inactive: -0.102 | – | – | – | –
2 | MTCL1 (UniProt Q9Y4B5) | inactive: -0.028 | inactive: -0.156 | inactive: -0.056 | – | – | inactive: 0.008 | inactive: 0.11 | inactive: 0.065 | – | – | – | – | inactive: -0.087 | – | inactive: 0.011 | inactive: 0.078 | inactive: 0.011 | inactive: -0.017 | inactive: -0.028 | inactive: -0.016
3 | MT-ATP8 (UniProt P03928) | inactive: 0.024 | inactive: -0.002 | inactive: -0.121 | active: 0.402 | inactive: -0.054 | inactive: -0.078 | inactive: 0.011 | inactive: -0.087 | inactive: -0.107 | inactive: 0.055 | inactive: 0.177 | inactive: 0.214 | inactive: 0.043 | inactive: 0.085 | inactive: 0.056 | inactive: -0.067 | – | – | – | inactive: -0.084
4 | MUC19 (UniProt Q7Z5P9) | inactive: -0.06 | inactive: 0.011 | – | inactive: 0.032 | inactive: -0.033 | – | – | inactive: -0.078 | inactive: -0.019 | – | – | – | – | – | – | inactive: 0.001 | – | – | – | –
5 | MTO1 isoform 4 (UniProt Q9Y2Z2) | – | inactive: -0.009 | inactive: -0.058 | inactive: 0.006 | inactive: -0.041 | inactive: 0.004 | inactive: 0.094 | inactive: 0.053 | inactive: 0.095 | inactive: -0.009 | inactive: -0.066 | inactive: -0.024 | inactive: -0.057 | inactive: 0.033 | inactive: 0.057 | – | inactive: 0.103 | inactive: -0.031 | inactive: 0.073 | inactive: -0.046
6 | MSH4 (UniProt O15457) | – | – | – | inactive: 0.331 | inactive: -0.158 | – | – | – | inactive: 0.196 | – | – | – | – | – | – | – | – | – | – | –
7 | MTHFD2L (UniProt Q9H903) | – | inactive: -0.174 | inactive: -0.183 | inactive: -0.097 | inactive: 0.099 | – | inactive: -0.103 | inactive: -0.182 | inactive: -0.117 | – | – | – | inactive: 0.155 | – | inactive: -0.164 | – | – | – | – | inactive: 0.28
8 | MTSS1 isoform 5 (UniProt O43312) | inactive: 0.089 | – | inactive: -0.003 | – | – | – | inactive: 0.066 | – | – | inactive: 0.148 | inactive: 0.524 | inactive: -0.091 | inactive: 0.069 | inactive: -0.141 | inactive: -0.04 | inactive: 0.394 | inactive: -0.975 | inactive: 0.597 | inactive: -0.228 | –
9 | MTIF3 (UniProt Q9H2K0) | inactive: -0.034 | inactive: -0.151 | – | inactive: -0.043 | inactive: 0.012 | – | – | inactive: -0.027 | inactive: -0.013 | inactive: 0.108 | inactive: -0.019 | inactive: 0.026 | – | inactive: 0.035 | – | inactive: 0.052 | inactive: -0.014 | inactive: -0.113 | inactive: -0.049 | inactive: -0.029
10 | MTHFR (UniProt F8W9T8) | – | inactive: -0.129 | – | – | – | – | – | inactive: -0.062 | – | inactive: -0.079 | inactive: -0.103 | inactive: 0.228 | – | inactive: 0.001 | – | – | – | – | – | –
11 | MTRES1 (UniProt Q9P0P8) | inactive: -0.03 | inactive: 0.015 | inactive: -0.053 | – | – | inactive: 0.027 | inactive: 0.089 | inactive: 0.119 | – | inactive: -0.066 | inactive: 0.015 | inactive: 0.049 | inactive: -0.139 | inactive: -0.084 | inactive: 0.065 | inactive: 0 | inactive: 0.008 | inactive: 0.132 | inactive: -0.026 | inactive: 0.009
12 | MS4A3 (UniProt Q96HJ5) | inactive: -0.017 | – | inactive: -0.106 | – | – | inactive: 0.002 | inactive: 0.074 | – | – | – | – | – | inactive: -0.233 | – | inactive: -0.042 | inactive: -0.054 | – | – | – | –
13 | MRTFA (UniProt Q969V6) | – | inactive: -0.008 | inactive: -0.059 | inactive: -0.032 | inactive: 0.02 | inactive: 0.055 | inactive: -0.007 | inactive: -0.042 | inactive: -0.007 | inactive: 0.075 | inactive: -0.096 | inactive: 0.156 | inactive: 0.04 | inactive: -0.144 | inactive: 0.003 | – | inactive: -0.061 | inactive: 0.254 | inactive: -0.118 | inactive: 0.039
14 | MTHFD1 (UniProt V9GZ32) | inactive: -0.067 | – | – | – | – | – | – | – | – | inactive: -0.43 | inactive: -0.802 | inactive: -0.041 | – | inactive: 0.188 | – | inactive: -0.185 | – | – | – | –
15 | MSL2 (UniProt Q9HCI7) | – | – | inactive: -0.082 | – | – | inactive: -0.005 | inactive: -0.017 | – | – | inactive: -0.103 | inactive: -0.002 | inactive: 0.127 | inactive: -0.033 | inactive: 0.144 | inactive: 0.008 | – | – | – | – | inactive: 0.024
16 | MSRA (UniProt Q9UJ68) | inactive: -0.228 | – | – | inactive: 0.053 | inactive: 0.005 | inactive: -0.121 | – | – | inactive: -0.078 | – | – | – | – | – | – | inactive: 0.074 | – | – | – | –
17 | MTTP (UniProt P55157) | – | inactive: -0.453 | – | – | – | – | – | inactive: 0.217 | – | – | – | – | – | – | – | – | – | – | – | –
18 | MT-ND6 (UniProt P03923) | inactive: -0.056 | – | inactive: -0.263 | inactive: -0.188 | inactive: 0.133 | – | inactive: 0.046 | – | inactive: 0.182 | – | – | – | inactive: -0.352 | – | inactive: 0.009 | inactive: 0.057 | – | – | – | inactive: 0.05

Exported in markdown: part of the list above.

| Row | Target | log2 fold change [1] | log2 fold change [2] | log2 fold change [3] | log2 fold change [4] | log2 fold change [5] | log2 fold change [6] | log2 fold change [7] | log2 fold change [8] | log2 fold change [9] | log2 fold change [10] | log2 fold change [11] | log2 fold change [12] | log2 fold change [13] | log2 fold change [14] | log2 fold change [15] | log2 fold change [16] | log2 fold change [17] | log2 fold change [18] | log2 fold change [19] | log2 fold change [20] |
| --- | --- | --- | --- | --- | --- | --- | --- | --- | --- | --- | --- | --- | --- | --- | --- | --- | --- | --- | --- | --- | --- |
| 4 | MUC19 (UniProt Q7Z5P9) | inactive: -0.06 | inactive: 0.011 | – | inactive: 0.032 | inactive: -0.033 | – | – | inactive: -0.078 | inactive: -0.019 | – | – | – | – | – | – | inactive: 0.001 | – | – | – | – |
| 5 | MTO1 isoform 4 (UniProt Q9Y2Z2) | – | inactive: -0.009 | inactive: -0.058 | inactive: 0.006 | inactive: -0.041 | inactive: 0.004 | inactive: 0.094 | inactive: 0.053 | inactive: 0.095 | inactive: -0.009 | inactive: -0.066 | inactive: -0.024 | inactive: -0.057 | inactive: 0.033 | inactive: 0.057 | – | inactive: 0.103 | inactive: -0.031 | inactive: 0.073 | inactive: -0.046 |
